Values from PubChem BioAssay AID504764 (Drosophila RNAi Screening Center, 2011)
The screen tested about 22,000 reagents; this is an unselected part of those with a known target gene and a result. In the full data, 403 (1.9%) got an active call. 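Unnormalised raw counts per well; ratio z-scores behind the hit calls and whether each hit raises or lowers signal are not deposited.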 Entries without a mark were called inactive. Names joined by + are all predicted targets of the reagent. Not stated in the record: the amount of reagent.

Test: 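Genes whose knock-down alters Notch-dependent transcription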 (primary screen)
Cell system: Drosophila Kc167 cells
Reagents: long dsRNA against Drosophila genes
Timing: about 5 days (4 days dsRNA, then 24 h after transfection)
Conditions: transfection of constitutively active membrane-tethered Notch lacking the extracellular domain, read 24 h later
Measured: 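Firefly luciferase from an E(spl)m3 reporter with active Notch, plus control-promoter and uninduced reporter wells for normalisation; unnormalised counts, duplicate wells a and b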
Scale: induced reporter light, run 1, well a and induced reporter light, run 1, well b: higher = more light from the Notch target reporter with active Notch; control promoter light, run 1, well a and control promoter light, run 1, well b: higher = more light from the viral control promoter (cell number, transfection, viability); uninduced reporter light, run 1, well a: higher = more light from the Notch target reporter without active Notch
Call rule: 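Wells with low control signal or poorly matching duplicates excluded; duplicates averaged; per source plate, z beyond ±2 for induced/control log2 ratio or beyond ±1.8 for induced/uninduced marks a hit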
Meaning of the calls: active = modifier hit (raised or lowered Notch signal); inactive = not a hit

gene knocked down,dsRNA,"induced reporter light, run 1, well a","induced reporter light, run 1, well b","control promoter light, run 1, well a","control promoter light, run 1, well b","uninduced reporter light, run 1, well a"
Mal-A3,DRSC07462,2.18e5,1.75e5,2.21e5,1.80e5,17665
PIP4K,DRSC17213,1.08e5,1.10e5,1.76e5,1.92e5,7680
Mfe2,DRSC19869,1.66e5,1.79e5,2.17e5,1.89e5,11830
CG12644 (retired record),DRSC17850,1.49e5,1.61e5,3.14e5,2.97e5,9565
CR12798,DRSC21078,1.47e5,1.36e5,1.44e5,2.07e5,12355
CG10654,DRSC09767,1.50e5,1.56e5,2.46e5,1.78e5,8515
Grl62a,DRSC07963,1.81e5,1.96e5,1.93e5,1.73e5,14880
CG7564,DRSC10880,2.21e5,1.18e5,2.15e5,2.12e5,5628
fit,DRSC15280,1.93e5,1.87e5,2.08e5,2.12e5,17405
pix,DRSC10533,9345,10682,22870,18150,1100
Argk1,DRSC08959,2.40e5,2.04e5,2.12e5,2.06e5,14745
Argk1,DRSC09668,2.77e5,2.64e5,3.36e5,3.28e5,17482
Argk1,DRSC10460,87725,1.07e5,59990,32140,8688
Opbp,DRSC04966,1.28e5,1.45e5,1.12e5,1.31e5,8530
Prosalpha5,DRSC07514,14780,16315,20235,22335,1670
Gabat,DRSC10846,1.31e5,75990,1.28e5,1.27e5,9260
Rbbp5 + CG6434 (retired record),DRSC10635,74170,85955,69195,61840,5320
CG42843 (retired record),DRSC01118,1.39e5,1.24e5,1.54e5,1.48e5,9855
CG42843 (retired record),DRSC02231,1.24e5,1.35e5,66000,90685,16460
CG42843 (retired record),DRSC02233,1.01e5,1.11e5,70580,74960,14780
Ppt2,DRSC02786,2.06e5,2.36e5,1.94e5,2.15e5,15842
ham,DRSC02070,65625,61225,59270,47900,4115
ham,DRSC02512,35295,46295,58580,28995,2395
ham,DRSC02513,42190,46170,51980,38750,3285
Ufl1,DRSC12527,1.41e5,1.36e5,88530,87120,8310
lt,DRSC03759,55455,53045,57600,43210,3055
Miga,DRSC17821,1.22e5,1.27e5,2.50e5,2.10e5,11320
Sqor,DRSC08453,1.23e5,1.28e5,1.20e5,56300,13325

Copied from the entries so far for reference:
gene knocked down,dsRNA,"induced reporter light, run 1, well a","induced reporter light, run 1, well b","control promoter light, run 1, well a","control promoter light, run 1, well b","uninduced reporter light, run 1, well a"
Argk1,DRSC08959,2.40e5,2.04e5,2.12e5,2.06e5,14745
Argk1,DRSC09668,2.77e5,2.64e5,3.36e5,3.28e5,17482
Argk1,DRSC10460,87725,1.07e5,59990,32140,8688
Opbp,DRSC04966,1.28e5,1.45e5,1.12e5,1.31e5,8530

More records:
gene knocked down,dsRNA,"induced reporter light, run 1, well a","induced reporter light, run 1, well b","control promoter light, run 1, well a","control promoter light, run 1, well b","uninduced reporter light, run 1, well a"
CG3603,DRSC18317,1.07e5,1.03e5,1.55e5,2.33e5,7840
CG7627,DRSC03065,1.63e5,2.18e5,1.88e5,1.71e5,19785
CG17344,DRSC02607,83870,62240,77340,1.41e5,4910
ec,DRSC17285,61770,66505,1.01e5,1.07e5,6295
ec,DRSC17286,66790,78250,77605,76260,7165
ec,DRSC18658,1.76e5,1.80e5,4.03e5,2.89e5,14510
Liprin-beta,DRSC09795,1.02e5,95865,1.33e5,98050,5210
CG9782,DRSC19145,76635,90290,73155,63270,9215
CG9782,DRSC20209,78025,73150,91285,73650,9605
Tpi,DRSC16888,1.95e5,2.67e5,3.28e5,3.56e5,18075
Khc,DRSC07448,1.46e5,1.63e5,2.76e5,3.12e5,12225
HINT1,DRSC00548,1.49e5,92160,83540,68270,12225
promL,DRSC08733,1.24e5,1.14e5,1.02e5,50540,13570
RhoGEF3 (retired record),DRSC08266,54455,57945,87965,86625,4380
RhoGEF3 (retired record),DRSC08353,1.79e5,1.97e5,1.97e5,2.06e5,8735
Gapdh1,DRSC07433,2.52e5,2.20e5,2.32e5,2.67e5,21115
Lac,DRSC07452,2.29e5,1.39e5,1.81e5,1.81e5,15240
GM130,DRSC04617,87955,1.07e5,74080,79265,5815
Gr59f,DRSC04499,2.00e5,1.79e5,1.96e5,1.71e5,11985
Taf7,DRSC15445,74310,76655,53665,50345,5155
CG17266,DRSC04979,1.89e5,1.88e5,2.09e5,1.51e5,13980
Lcp1,DRSC07455,1.71e5,1.40e5,1.74e5,1.59e5,12210
